Data from patent publication US20240383984A1 (Genentech, published 2024).
These are yes or no findings as the source states them, for the method shown. Some binding calls cover weakened binding; strength is not graded here.

By UniProt entry, the sequences of proteins in these tests, tags left out. Residues count along the entry.
UniProt P07766, residues 23-126: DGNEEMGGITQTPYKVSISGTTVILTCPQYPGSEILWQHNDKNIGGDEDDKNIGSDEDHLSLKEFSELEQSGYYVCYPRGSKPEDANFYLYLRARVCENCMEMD

molecular target: T1, human CD3ε (human, UniProt P07766 23-126, limits assumed); assay: ELISA on CD3
T1 construct: also called hCD3ε

| binding | Binder |
| --- | --- |
| binds | bis-Fab B (bispecific antibody, V domains shown, bis-Fab: 1G7.v85 Fab (HC A114C, constant part) crosslinked to 38E4.v1 Fab (LC N22C)) VH 1: EVQLVESGPGLVKPSETLSLTCTVSGFSLTRFGVHWVRQPPGKGLEWLGVIWRGGSTDYNAAFVSRLTISKDNSKNQVSLKLSSVTAADTAVYYCSNHYYGSSDYALDNWGQGTLVTVSS VL 1: DIQMTQSPSSLSASVGDRVTITCKASQDVRNLVVWFQQKPGKAPKLLIYSGSYRYSGVPSRFSGSGSGTDFTLTISSLQPEDFATYYCQQHYSPPYTFGQGTKVEIK VH 2: EVQLVQSGAEVKKPGASVKVSCKASGFTFTSYYIHWVRQAPGQGLEWIGWIYPENDNTKYNEKFKDRVTITADTSTSTAYLELSSLRSEDTAVYYCARDGYSRYYFDYWGQGTLVTVSS VL 2: DIVMTQSPDSLAVSLGERATICCKSSQSLLNSRTRKNYLAWYQQKPGQSPKLLIYWTSTRKSGVPDRFSGSGSGTDFTLTISSLQAEDVAVYYCKQSFILRTFGQGTKVEIK |
| binds | F(ab′)2 A (bispecific antibody, V domains shown) VH 1: EVQLVESGPGLVKPSETLSLTCTVSGFSLTRFGVHWVRQPPGKGLEWLGVIWRGGSTDYNAAFVSRLTISKDNSKNQVSLKLSSVTAADTAVYYCSNHYYGSSDYALDNWGQGTLVTVSS VL 1: DIQMTQSPSSLSASVGDRVTITCKASQDVRNLVVWFQQKPGKAPKLLIYSGSYRYSGVPSRFSGSGSGTDFTLTISSLQPEDFATYYCQQHYSPPYTFGQGTKVEIK VH 2: EVQLVQSGAEVKKPGASVKVSCKASGFTFTSYYIHWVRQAPGQGLEWIGWIYPENDNTKYNEKFKDRVTITADTSTSTAYLELSSLRSEDTAVYYCARDGYSRYYFDYWGQGTLVTVSS VL 2: DIVMTQSPDSLAVSLGERATINCKSSQSLLNSRTRKNYLAWYQQKPGQSPKLLIYWTSTRKSGVPDRFSGSGSGTDFTLTISSLQAEDVAVYYCKQSFILRTFGQGTKVEIK |
| binds | bis-Fab D (bispecific antibody, V domains shown, bis-Fab: 1G7.v85 Fab (LC A149C, constant part) crosslinked to 38E4.v1 Fab (LC N22C)) VH 1: EVQLVESGPGLVKPSETLSLTCTVSGFSLTRFGVHWVRQPPGKGLEWLGVIWRGGSTDYNAAFVSRLTISKDNSKNQVSLKLSSVTAADTAVYYCSNHYYGSSDYALDNWGQGTLVTVSS VL 1: DIQMTQSPSSLSASVGDRVTITCKASQDVRNLVVWFQQKPGKAPKLLIYSGSYRYSGVPSRFSGSGSGTDFTLTISSLQPEDFATYYCQQHYSPPYTFGQGTKVEIK VH 2: EVQLVQSGAEVKKPGASVKVSCKASGFTFTSYYIHWVRQAPGQGLEWIGWIYPENDNTKYNEKFKDRVTITADTSTSTAYLELSSLRSEDTAVYYCARDGYSRYYFDYWGQGTLVTVSS VL 2: DIVMTQSPDSLAVSLGERATICCKSSQSLLNSRTRKNYLAWYQQKPGQSPKLLIYWTSTRKSGVPDRFSGSGSGTDFTLTISSLQAEDVAVYYCKQSFILRTFGQGTKVEIK |
